Data as given in PubChem BioAssay AID1259306 (Sanger Institute, 2017).
The deposit covers 794 reagents; below is a part drawn at random. Of all reagents, 11 (1.4%) got an active call. 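Calls reflect knock-down alone; synergy scores play no part, so knock-downs synergising with a drug can be called no change.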 Unmarked entries are inactive. Further read-outs or replicates are left out here. The record does not give: the amount of reagent, the time to read-out.

Purpose: 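Find kinases whose loss reduces colorectal cancer cell viability or aids targeted drugs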 (primary screen)
Cell system: human SNU-C5 colorectal cancer cells
Reagents: siRNA pool against human genes
Treatment: DMSO vehicle alone, or one anchor drug: BYL719 at 1 µM, cetuximab at 5 µg/ml or trametinib at 10 nM, given 24 h into the assay
Measured: 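Replicate-averaged viability against non-targeting pool control, given as fraction and robust z-score; separate synergy scores for BYL719, cetuximab and trametinib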
Scale: robust z-score, knock-down alone: higher = more viable cells
Rule for the call: 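Essential if knock-down without drug gives a robust z-score under -3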
Calls: active = essential (knock-down alone); inactive = no change alone

Against PMVK the deposit lists robust z-score, knock-down alone -1.57.
With knock-down of EPHA2, the record shows robust z-score, knock-down alone 0.978.
PDK3 gave robust z-score, knock-down alone 0.0797.
PSKH1 scored robust z-score, knock-down alone 0.366.
Against ADPGK, the values are robust z-score, knock-down alone 0.237.
For CDK20 the deposit lists robust z-score, knock-down alone -2.
Against SRC the deposit lists robust z-score, knock-down alone -0.321.
Depletion of CAMKK1 resulted in: robust z-score, knock-down alone 0.713.
MARK1 gave robust z-score, knock-down alone 0.208.
With knock-down of TAF1L, the record shows robust z-score, knock-down alone -0.547.
Against CDK7, the entry reads robust z-score, knock-down alone 0.989.
Depletion of CSNK1E came out at: robust z-score, knock-down alone -0.366.
For ROCK1, the values are robust z-score, knock-down alone 0.989.
Against CIT, the entry reads robust z-score, knock-down alone -0.244.
For FXN the deposit lists robust z-score, knock-down alone 0.989.
For NME3, the values are robust z-score, knock-down alone 0.847.
Depletion of PCBP1 came out at: robust z-score, knock-down alone -0.919.
BRAF scored robust z-score, knock-down alone -0.459.
Against ITPKC the deposit lists robust z-score, knock-down alone 0.989.
For MAP2K6 the deposit lists robust z-score, knock-down alone 0.989.
CDK14 gave robust z-score, knock-down alone -0.955.
Against WT1, the entry reads robust z-score, knock-down alone -0.391.
With knock-down of PHKA2, the screen gave robust z-score, knock-down alone 0.234.
For MAPK12, the values are robust z-score, knock-down alone 0.989.
After knock-down of EEF2K the results were robust z-score, knock-down alone -3.58 (active).
With knock-down of ATM the results were robust z-score, knock-down alone -0.227.
For IDH2 the deposit lists robust z-score, knock-down alone 0.208.
With knock-down of PDK4, the screen gave robust z-score, knock-down alone 0.989.
CAMKV showed robust z-score, knock-down alone 0.00167.
With knock-down of FGFR3, the screen gave robust z-score, knock-down alone 0.989.
With knock-down of TAOK1, the screen gave robust z-score, knock-down alone 0.122.
After knock-down of DNMT3A, the record shows robust z-score, knock-down alone -1.11.
After knock-down of PCK2, the screen gave robust z-score, knock-down alone 0.989.
Against PIM2 the deposit lists robust z-score, knock-down alone 0.433.
LTK scored robust z-score, knock-down alone 0.3.
For GCK the deposit lists robust z-score, knock-down alone -0.943.

Laid out differently: results already given.
Gene	robust z-score, knock-down alone
WT1	-0.391
PHKA2	0.234
MAPK12	0.989
EEF2K	-3.58 (active)
ATM	-0.227
IDH2	0.208
